Results are given in words; binding and its absence hold for the method and conditions named. For some assays here: Binding seen in cells or lysates may run through a third protein. Some binding calls cover weakened binding; strength is not graded here. For some assays here: Tags and fused reporters may be left off the sequences shown.
Assays:
[1] = biological target: T1, COUP-TFII (endogenous in DN-MAML bEnd.3 cells) (mouse (endogenous in bEnd.3)) (UniProt P43135); test: proximity ligation; TNFα-treated DN-MAML bEnd.3 cells fixed in acetone at 4 °C; anti-NKX2-3 and anti-COUP-TFII antibodies; isotype-matched controls
T1 sequence: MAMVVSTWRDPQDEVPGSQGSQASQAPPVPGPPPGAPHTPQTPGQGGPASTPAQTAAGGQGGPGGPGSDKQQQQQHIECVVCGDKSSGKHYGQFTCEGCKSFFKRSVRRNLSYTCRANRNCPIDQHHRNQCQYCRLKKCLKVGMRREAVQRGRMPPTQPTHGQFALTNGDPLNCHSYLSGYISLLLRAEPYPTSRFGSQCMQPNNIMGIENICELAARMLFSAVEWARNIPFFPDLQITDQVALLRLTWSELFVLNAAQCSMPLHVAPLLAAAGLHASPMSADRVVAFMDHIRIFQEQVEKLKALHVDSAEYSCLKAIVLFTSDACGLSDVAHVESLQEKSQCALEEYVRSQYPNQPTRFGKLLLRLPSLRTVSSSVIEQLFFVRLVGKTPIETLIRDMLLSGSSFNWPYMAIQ

Amino acid sequences for entries named in this document (tags omitted). A change or cut given only in a name is not applied to a line headed by its entry. Chains listed by the source or under a name are the forms on record and can include a tag or linker.
UniProt P97334: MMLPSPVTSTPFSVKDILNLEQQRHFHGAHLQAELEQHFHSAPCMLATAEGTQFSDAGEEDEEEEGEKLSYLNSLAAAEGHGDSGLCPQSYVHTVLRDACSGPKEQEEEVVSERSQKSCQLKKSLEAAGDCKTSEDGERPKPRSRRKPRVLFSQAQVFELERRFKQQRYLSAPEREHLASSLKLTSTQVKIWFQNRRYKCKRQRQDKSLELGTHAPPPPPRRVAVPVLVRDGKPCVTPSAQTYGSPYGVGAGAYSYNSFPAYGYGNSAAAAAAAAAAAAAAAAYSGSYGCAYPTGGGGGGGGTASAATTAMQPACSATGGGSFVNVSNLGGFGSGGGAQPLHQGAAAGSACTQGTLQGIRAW
NKX2-3 lacking the TN domain (Nkx2-3∆2-24) (P97334, form named): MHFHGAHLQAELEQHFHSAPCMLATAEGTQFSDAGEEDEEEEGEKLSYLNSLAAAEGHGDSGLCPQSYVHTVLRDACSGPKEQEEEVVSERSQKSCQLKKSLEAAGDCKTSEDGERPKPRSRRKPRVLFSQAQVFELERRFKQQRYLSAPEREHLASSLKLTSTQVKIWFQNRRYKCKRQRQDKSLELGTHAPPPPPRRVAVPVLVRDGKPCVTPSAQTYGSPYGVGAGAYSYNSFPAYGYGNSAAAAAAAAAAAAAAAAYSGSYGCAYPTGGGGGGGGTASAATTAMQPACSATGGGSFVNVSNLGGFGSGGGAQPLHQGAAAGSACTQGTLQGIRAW

[2] = biological target: T2, COUP-TFII (recombinant, His- and T7-tagged) (mouse) (UniProt P43135); test: native gel or EMSA; recombinant proteins co-incubated with labelled Madcam1 CE probes (native CE, CE_ΔC_A, CE_ΔN_ΔC_A); 4 °C, 20% glycerol, 20 mM Tris pH 8.0, 10 mM KCl, 1 mM DTT, poly dI/C, BSA; 6% gel; supershift with anti-NKX2-3; complex seen on DNA; both purified
T2 sequence: T1 sequence

Row | binding [1] | binding [2] | Substance
1 | binds |  | NKX2-3 (endogenous in DN-MAML bEnd.3 cells) (from UniProt P97334 1-362)
2 |  | no binding | NKX2-3 lacking the TN domain (Nkx2-3∆2-24) (from UniProt P97334 1-362)

From article PMC9718832, “An NKX-COUP-TFII morphogenetic code directs mucosal endothelial addressin expression” (Nature Communications, 2022)
